Data as given in PubChem BioAssay AID652272 (Drosophila RNAi Screening Center, 2013)

Assay: 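Genes whose knock-down decreases or increases Hedgehog reporter output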 (primary screen)
System: Drosophila clone 8 (Cl8) cells
Reagents: long dsRNA against Drosophila genes
Read-out: 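Firefly light from a Hedgehog-responsive ptc promoter reporter and Renilla reference light, both read on a plate reader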
Direction: firefly Hh reporter signal: higher = more ptc reporter light; Renilla reference signal: higher = more Renilla control light
Hit rule: 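Hit when the z-score averaged over two replicates is under -2 or over +3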
Meaning of the calls: active = hit: reporter lowered or raised; inactive = not a hit
The deposit covers about 21,000 reagents; below is an unselected part of those with a known target gene and a result. Of all reagents, 503 (2.4%) got an active call. 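Raw plate light values, not normalised; calls rest on replicate z-scores that were not deposited; hits include reporter decreases as well as increases.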 The numbers tell different reagents against one gene apart. Not stated in the record: the amount of reagent, the time to read-out.

CG7362 (GeneID 41787)
- firefly Hh reporter signal, replicate 1: 1.64e5
- firefly Hh reporter signal, replicate 2: 1.37e5
- Renilla reference signal, replicate 1: 5803
- Renilla reference signal, replicate 2: 3762
- call: inactive

Iris (GeneID 33290)
- firefly Hh reporter signal, replicate 1: 1.12e5
- firefly Hh reporter signal, replicate 2: 51877
- Renilla reference signal, replicate 1: 4312
- Renilla reference signal, replicate 2: 2423
- call: inactive

CG3927 (GeneID 37576)
- firefly Hh reporter signal, replicate 1: 1.25e5
- firefly Hh reporter signal, replicate 2: 87296
- Renilla reference signal, replicate 1: 2464
- Renilla reference signal, replicate 2: 8544
- call: inactive

CG18131 (GeneID 33331)
- firefly Hh reporter signal, replicate 1: 1.11e5
- firefly Hh reporter signal, replicate 2: 56281
- Renilla reference signal, replicate 1: 2976
- Renilla reference signal, replicate 2: 1601
- call: inactive

CG15522 (GeneID 43546)
- firefly Hh reporter signal, replicate 1: 69707
- firefly Hh reporter signal, replicate 2: 94208
- Renilla reference signal, replicate 1: 2979
- Renilla reference signal, replicate 2: 3649
- call: inactive

CG7611 (GeneID 40386)
- firefly Hh reporter signal, replicate 1: 1.51e5
- firefly Hh reporter signal, replicate 2: 1.64e5
- Renilla reference signal, replicate 1: 4762
- Renilla reference signal, replicate 2: 5693
- call: inactive

SerRS-m (GeneID 41862)
- firefly Hh reporter signal, replicate 1: 66646
- firefly Hh reporter signal, replicate 2: 76796
- Renilla reference signal, replicate 1: 1564
- Renilla reference signal, replicate 2: 1773
- call: inactive

Individual results from above.
Entry of CG3927 (GeneID 37576) in “call”: inactive
Result for CG15522 (GeneID 43546) in “Renilla reference signal, replicate 1”: 2979

More results follow:
Cp7Fc (GeneID 31786)
- firefly Hh reporter signal, replicate 1: 85193
- firefly Hh reporter signal, replicate 2: 2.08e5
- Renilla reference signal, replicate 1: 3459
- Renilla reference signal, replicate 2: 8215
- call: inactive

Iru (GeneID 41080)
- firefly Hh reporter signal, replicate 1: 1.17e5
- firefly Hh reporter signal, replicate 2: 74105
- Renilla reference signal, replicate 1: 4944
- Renilla reference signal, replicate 2: 3480
- call: inactive

l(2)05287 (GeneID 35374) #1
- firefly Hh reporter signal, replicate 1: 67130
- firefly Hh reporter signal, replicate 2: 69635
- Renilla reference signal, replicate 1: 2950
- Renilla reference signal, replicate 2: 3724
- call: inactive

l(2)05287 (GeneID 35374) #2
- firefly Hh reporter signal, replicate 1: 76522
- firefly Hh reporter signal, replicate 2: 35664
- Renilla reference signal, replicate 1: 3001
- Renilla reference signal, replicate 2: 4992
- call: active

CG13562 (GeneID 37797)
- firefly Hh reporter signal, replicate 1: 85172
- firefly Hh reporter signal, replicate 2: 79312
- Renilla reference signal, replicate 1: 2310
- Renilla reference signal, replicate 2: 6374
- call: inactive
